Data as given in PubChem BioAssay AID1259286 (Sanger Institute, 2017)
Assay: 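Kinases whose loss adds to targeted drug killing of colorectal cancer cells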 (primary screen). System: NCI-H630 human colorectal cancer cells. Knock-down reagent: siRNA pool against human genes. Treatment: anchor drugs BYL719 at 1 µM, cetuximab at 5 µg/ml or trametinib at 10 nM, or DMSO vehicle alone; exposure time not given. Measurement: 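Replicate-averaged viability as a fraction of non-targeting control, knock-down-alone robust z-score, and per-drug synergy scores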. Reading the numbers: viability z-score, knock-down alone: higher = more viable cells, weaker knock-down effect; viability vs control, knock-down alone: higher = more viable cells; synergy score with trametinib: higher = stronger synergistic killing with trametinib; synergy score with BYL719: higher = stronger synergistic killing with BYL719. Hit rule: 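Essential call: robust z-score of viability with siRNA alone lower than -3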. Meaning of the calls: active = essential when knocked down alone; inactive = not essential alone.
The whole screen tested 794 reagents; this is a part drawn at random. 17 of them (2.1%) were called active. 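Calls use knock-down alone only; synergy above 0.15 marked separately; viability seems capped at control level; exposure time not given.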 Entries without a mark were called inactive. Reagents against one gene are numbered here. Not all columns of the deposit are shown. The record does not give: the amount of reagent, the time to read-out.

gene knocked down	reagent no.	viability z-score, knock-down alone	viability vs control, knock-down alone (fraction of control)	synergy score with trametinib	synergy score with BYL719
AURKA (aurora kinase A)	1	-3.34 (active)	0.856	-0.0515	-0.00871
STK38 (serine/threonine kinase 38)	1	-0.507	0.963	-0.00807	0.0399
ILK (integrin linked kinase)	1	0.464	1	-0.0479	-0.0814
ILK (integrin linked kinase)	2	-0.678	0.957	-0.0575	-0.0107
DIS3 (DIS3 exosome endoribonuclease and 3'-5' exoribonuclease)	1	-0.126	0.978	-0.0294	-0.0982
FER (FER tyrosine kinase)	1	-1.17	0.938	-0.0734	-0.138
HIPK4 (homeodomain interacting protein kinase 4)	1	0.464	1	-0.0479	-0.0814
STK40 (serine/threonine kinase 40)	1	-0.116	0.978	0.0378	-0.0267
MYLK (myosin light chain kinase)	1	0.464	1	0.0166	0.101
LMBR1 (limb development membrane protein 1)	1	0.464	1	-0.0479	-0.0814
PIP4K2B (phosphatidylinositol-5-phosphate 4-kinase type 2 beta)	1	0.464	1	0.0282	0.121

An excerpt from above, reduced to “synergy score with BYL719”:
MYLK (myosin light chain kinase): 0.101
LMBR1 (limb development membrane protein 1): -0.0814
PIP4K2B (phosphatidylinositol-5-phosphate 4-kinase type 2 beta): 0.121

Additional results follow:
gene knocked down	reagent no.	viability z-score, knock-down alone	viability vs control, knock-down alone (fraction of control)	synergy score with trametinib	synergy score with BYL719
STK32B (serine/threonine kinase 32B)	1	-2.09	0.904	-0.123	-0.0605
NR2F2 (nuclear receptor subfamily 2 group F member 2)	1	0.464	1	-0.0185	0.0803
AGK (acylglycerol kinase)	1	0.464	1	-0.0369	-0.0814
CILK1 (ciliogenesis associated kinase 1)	1	0.312	0.994	-0.0533	-0.0867
CTCF (CCCTC-binding factor)	1	0.464	1	-0.0479	0.0608
PRKCE (protein kinase C epsilon)	1	0.464	1	0.0876	-0.0263
PFKP (phosphofructokinase, platelet)	1	0.464	1	-0.0222	0.0423
EPHA4 (EPH receptor A4)	1	-0.808	0.952	-0.0492	0.076
MTOR (mechanistic target of rapamycin kinase)	1	0.464	1	0.000911	0.000194
